This is an account of results in paper PMC9149245.

Sequences of proteins named here, by UniProt entry; tags and fusion partners are left off.
UniProt Q06609: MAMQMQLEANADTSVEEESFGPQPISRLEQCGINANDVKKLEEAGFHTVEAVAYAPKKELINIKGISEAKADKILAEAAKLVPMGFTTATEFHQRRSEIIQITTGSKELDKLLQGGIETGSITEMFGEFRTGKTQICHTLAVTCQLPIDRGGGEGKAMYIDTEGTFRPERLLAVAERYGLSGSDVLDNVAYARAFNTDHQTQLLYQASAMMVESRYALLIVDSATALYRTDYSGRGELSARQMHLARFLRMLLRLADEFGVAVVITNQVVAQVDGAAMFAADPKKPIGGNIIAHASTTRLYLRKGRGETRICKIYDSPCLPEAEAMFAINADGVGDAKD

No constants are given. Whether binding was seen depends on the method and setting. For some assays here: Binding seen in cells or lysates may run through a third protein. Some entries that bind do so weakly or less than the wild type. Sequences can lack the tags named with a protein.

In test [1] the target is T1, eGFP-tagged RAD51AP1 (human) (UniProt Q96B01).
T1 sequence: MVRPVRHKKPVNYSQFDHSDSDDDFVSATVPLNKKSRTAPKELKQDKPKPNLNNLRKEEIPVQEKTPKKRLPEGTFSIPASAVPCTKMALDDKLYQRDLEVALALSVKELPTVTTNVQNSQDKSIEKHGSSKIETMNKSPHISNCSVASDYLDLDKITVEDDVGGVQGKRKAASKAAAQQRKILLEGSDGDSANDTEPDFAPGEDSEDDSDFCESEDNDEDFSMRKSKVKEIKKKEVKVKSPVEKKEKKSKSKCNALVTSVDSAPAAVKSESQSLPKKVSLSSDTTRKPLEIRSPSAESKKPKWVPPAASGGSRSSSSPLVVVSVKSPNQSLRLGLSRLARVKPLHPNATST
As to the kind of experiment: co-IP; GFP-Trap dynabeads hold the eGFP protein from lysates of transfected HeLa KO cells; 50 mM Tris-HCl pH 7.5, 150 mM NaCl, 0.1% NP-40, DNase I, 4°C, 1 h; Western blot; cells untreated, or 4 and 20 h after 2 h of 0.5 µM MMC, or after 1 day in 10 µM olaparib.

Test [2] deals with T2, FLAG-tagged RAD51AP1 (human) (UniProt Q96B01).
T2 sequence: T1 sequence
As to the kind of experiment: co-IP; anti-RAD51AP1 complexes of RAD51AP1 KO cells stably expressing FLAG-RAD51AP1; unperturbed conditions; Western blot. Background: In western blotting, separated proteins are transferred to a membrane and probed.

Test [3] addresses T3, (His)6-RAD51AP1-FLAG (human) (UniProt Q96B01).
T3 sequence: T1 sequence
The experiment in a line: pull-down; (His)6-RAD51AP1-FLAG (100 nM) on anti-FLAG M2 affinity resin, RAD54B (100 nM) added; 50 mM Tris-HCl pH 7.5, 150 mM NaCl, 0.1% Triton X-100, 100 µg/ml BSA, DNase I, 4°C; eluted with 3x FLAG peptide; Western blot; both purified.

For the molecule “RAD51 (endogenous) (from UniProt Q06609 1-339)”, in test [1], the binding result is “binds”.

B1: RAD54L (endogenous) (protein, UniProt Q92698 1-747)
chain: MRRSLAPSQLAKRKPEGRSCDDEDWQPGLVTPRKRKSSSETQIQECFLSPFRKPLSQLTNQPPCLDSSQHEAFIRSILSKPFKVPIPNYQGPLGSRALGLKRAGVRRALHDPLEKDALVLYEPPPLSAHDQLKLDKEKLPVHVVVDPILSKVLRPHQREGVKFLWECVTSRRIPGSHGCIMADEMGLGKTLQCITLMWTLLRQSPECKPEIDKAVVVSPSSLVKNWYNEVGKWLGGRIQPLAIDGGSKDEIDQKLEGFMNQRGARVSSPILIISYETFRLHVGVLQKGSVGLVICDEGHRLKNSENQTYQALDSLNTSRRVLISGTPIQNDLLEYFSLVHFVNSGILGTAHEFKKHFELPILKGRDAAASEADRQLGEERLRELTSIVNRCLIRRTSDILSKYLPVKIEQVVCCRLTPLQTELYKRFLRQAKPAEELLEGKMSVSSLSSITSLKKLCNHPALIYDKCVEEEDGFVGALDLFPPGYSSKALEPQLSGKMLVLDYILAVTRSRSSDKVVLVSNYTQTLDLFEKLCRARRYLYVRLDGTMSIKKRAKVVERFNSPSSPDFVFMLSSKAGGCGLNLIGANRLVMFDPDWNPANDEQAMARVWRDGQKKTCYIYRLLSAGTIEEKIFQRQSHKKALSSCVVDEEQDVERHFSLGELKELFILDEASLSDTHDRLHCRRCVNSRQIRPPPDGSDCTSDLAGWNHCTDKWGLRDEVLQAAWDAASTAITFVFHQRSHEEQRGLR
Regarding B1, the binding entry in test [2] and in test [1] was “binds” throughout.

B2: RAD54B (endogenous) (protein, UniProt Q9Y620 1-910)
chain: MRRSAAPSQLQGNSFKKPKFIPPGRSNPGLNEEITKLNPDIKLFEGVAINNTFLPSQNDLRICSLNLPSEESTREINNRDNCSGKYCFEAPTLATLDPPHTVHSAPKEVAVSKEQEEKSDSLVKYFSVVWCKPSKKKHKKWEGDAVLIVKGKSFILKNLEGKDIGRGIGYKFKELEKIEEGQTLMICGKEIEVMGVISPDDFSSGRCFQLGGGSTAISHSSQVARKCFSNPFKSVCKPSSKENRQNDFQNCKPRHDPYTPNSLVMPRPDKNHQWVFNKNCFPLVDVVIDPYLVYHLRPHQKEGIIFLYECVMGMRMNGRCGAILADEMGLGKTLQCISLIWTLQCQGPYGGKPVIKKTLIVTPGSLVNNWKKEFQKWLGSERIKIFTVDQDHKVEEFIKSIFYSVLIISYEMLLRSLDQIKNIKFDLLICDEGHRLKNSAIKTTTALISLSCEKRIILTGTPIQNDLQEFFALIDFVNPGILGSLSSYRKIYEEPIILSREPSASEEEKELGERRAAELTCLTGLFILRRTQEIINKYLPPKIENVVFCRPGALQIELYRKLLNSQVVRFCLQGLLENSPHLICIGALKKLCNHPCLLFNSIKEKECSSTCDKNEEKSLYKGLLSVFPADYNPLLFTEKESGKLQVLSKLLAVIHELRPTEKVVLVSNYTQTLNILQEVCKRHGYAYTRLDGQTPISQRQQIVDGFNSQHSSFFIFLLSSKAGGVGLNLIGGSHLILYDIDWNPATDIQAMSRVWRDGQKYPVHIYRLLTTGTIEEKIYQRQISKQGLCGAVVDLTKTSEHIQFSVEELKNLFTLHESSDCVTHDLLDCECTGEEVHTGDSLEKFIVSRDCQLGPHHQKSNSLKPLSMSQLKQWKHFSGDHLNLTDPFLERITENVSFIFQNITTQATGT
Turning to B2, the binding entry in test [1] is given as “binds”.

B3: RAD54B (purified recombinant) (protein, UniProt Q9Y620 1-910)
chain: B2 chain
As to B3, the binding result in test [3] is given as “binds”.
